The supplement of paper PMC10663445
Counter-ions that a name gives are not always drawn. Some of the results follow. Single values are uncertain, as repeats are few or missing.

Each compound was assayed on hsa-miR-132-3p (assay: miR-132-3p level in NGN2-iNs after compound treatment (TMM-normalised, ComBat batch-corrected) (batch-corrected normalised expression (arbitrary units)); higher = higher miR-132-3p expression). Details: 10 µM; 24 h; human iPSC-derived NGN2 neurons (BR43).
`Nc1nccc2c1ncn2C1C=C(CO)C(O)C1O` (centres undefined) [3-Deazaneplanocin A (DZNeP)] was tested, and the “miR-132-3p level in NGN2-iNs” value was -1.06. In the case of `CO/N=C(\C(=O)N[C@@H]1C(=O)N2C(C(=O)O)=C(CSC(=O)c3ccco3)CS[C@H]12)c1csc(N)n1` [Ceftiofur HCl], the “miR-132-3p level in NGN2-iNs” value is reported as -0.587. With `CN1[C@@H]2CC[C@H]1C[C@@H](OC(c1ccccc1)c1ccccc1)C2` [Benztropine mesylate] the “miR-132-3p level in NGN2-iNs” value was -0.624. In the case of `C[C@@H]1O[C@@H](OC[C@H]2O[C@@H](Oc3c(-c4ccc(O)c(O)c4)oc4cc(O)cc(O)c4c3=O)[C@H](O)[C@@H](O)[C@@H]2O)[C@H](O)[C@H](O)[C@H]1O` [Rutin], the “miR-132-3p level in NGN2-iNs” value is reported as -0.339. In the case of `CCCC(=O)Nc1ccc(OCC(O)CNC(C)C)c(C(C)=O)c1` (centres undefined) [Acebutolol HCl], the “miR-132-3p level in NGN2-iNs” value is reported as 0.22. `COc1ccnc2[nH]cc(C(=O)C(=O)N3CCN(C(=O)c4ccccc4)C[C@H]3C)c12` was tested, and the “miR-132-3p level in NGN2-iNs” value was 0.656. `NC(=O)Nc1sc(-c2ccc(F)cc2)cc1C(N)=O` was tested, and the “miR-132-3p level in NGN2-iNs” value was -0.148. In the case of `C[C@H](CCC(=O)O)[C@H]1CC[C@H]2[C@@H]3C[C@H](O)[C@@H]4C[C@H](O)CC[C@]4(C)[C@H]3CC[C@]12C` [Hyodeoxycholic acid (HDCA)], the “miR-132-3p level in NGN2-iNs” value is reported as -1.21. In the case of `CCCCOc1ccc(CC(=O)NO)cc1` [Bufexamac], the “miR-132-3p level in NGN2-iNs” value is reported as -0.188. With `Cc1ccc(O)c([C@H](CCN(C(C)C)C(C)C)c2ccccc2)c1` [Tolterodine tartrate] the “miR-132-3p level in NGN2-iNs” value was -0.371. With `Cc1cc(C)cc(NC(=O)Cc2ccc(OC(C)(C)C(=O)O)cc2)c1` [Efaproxiral Sodium] the “miR-132-3p level in NGN2-iNs” value was -0.484. In the case of `CC(C)NCCCn1c(Sc2cc3c(cc2I)OCO3)nc2c(N)ncnc21` [Zelavespib (PU-H71)], the “miR-132-3p level in NGN2-iNs” value is reported as -2.59. In the case of `CN(C)CCC(c1ccccc1)c1ccccn1` (centres undefined) [Pheniramine Maleate], the “miR-132-3p level in NGN2-iNs” value is reported as -0.222. With `Cc1cccc(Nc2nc(-c3ccncc3)cs2)c1` the “miR-132-3p level in NGN2-iNs” value was 0.384. For `Cc1c(O)cccc1C(=O)N[C@@H](CSc1ccccc1)[C@H](O)CN1C[C@H]2CCCC[C@H]2C[C@H]1C(=O)NC(C)(C)C` [Nelfinavir Mesylate], the “miR-132-3p level in NGN2-iNs” value was 0.393. `O=c1cc(CN2CCOCC2)occ1OCCCCCSc1ccnc2cc(C(F)(F)F)ccc12` was tested, and the “miR-132-3p level in NGN2-iNs” value was -0.615. With `O[C@@H]1CO[C@H]2[C@@H]1OC[C@@H]2O` [Isosorbide] the “miR-132-3p level in NGN2-iNs” value was 0.472. For `CCOc1ccc(Cc2cc([C@@H]3O[C@H](CO)[C@@H](O)[C@H](O)[C@H]3O)ccc2Cl)cc1` [Dapagliflozin], the “miR-132-3p level in NGN2-iNs” value was -0.967. For `CN(C)CCN1C(=O)c2cccc3cc(N)cc(c23)C1=O` [Amonafide], the “miR-132-3p level in NGN2-iNs” value was 0.618. In the case of `CCN(CCCc1ccccc1)CCCc1ccccc1` [Alverine Citrate], the “miR-132-3p level in NGN2-iNs” value is reported as 0.337. With `O=C(O)c1ccc(N2C(=O)C(=Cc3ccc(-c4ccc([N+](=O)[O-])cc4)o3)C=C2c2ccccc2)cc1` the “miR-132-3p level in NGN2-iNs” value was -0.647. `CC[C@]1(O)C[C@@H]2CN(CCc3c([nH]c4ccccc34)[C@@](C(=O)OC)(c3cc4c(cc3OC)N(C)[C@H]3[C@@](O)(C(=O)OC)[C@H](OC(C)=O)[C@]5(CC)C=CCN6CC[C@]43[C@@H]65)C2)C1` [Vinblastine] was tested, and the “miR-132-3p level in NGN2-iNs” value was 0.989. In the case of `O=S(=O)(O)CCSSCCS(=O)(=O)O` [Dimesna], the “miR-132-3p level in NGN2-iNs” value is reported as -0.034. For `CO[C@H]1C(=O)[C@]2(C)[C@@H](OC)C[C@H]3OC[C@@]3(OC(C)=O)[C@H]2[C@H](OC(=O)c2ccccc2)[C@]2(O)C[C@H](OC(=O)[C@H](O)[C@@H](NC(=O)OC(C)(C)C)c3ccccc3)C(C)=C1C2(C)C` [Cabazitaxel], the “miR-132-3p level in NGN2-iNs” value was -1.22. `Cc1cc(N2CCOCC2)cc2[nH]c(-c3c(NCC(O)c4cccc(Cl)c4)cc[nH]c3=O)nc12` (centres undefined) was tested, and the “miR-132-3p level in NGN2-iNs” value was -0.579. With `NC(=O)NO` [Hydroxyurea] the “miR-132-3p level in NGN2-iNs” value was -0.298. For `Cc1c(Cn2c(C)nc3c(C(=O)O)cc(N4CCOCC4)cc32)cccc1C(F)(F)F`, the “miR-132-3p level in NGN2-iNs” value was -0.039. `CCCCCCCCCCCCCCCC[N+](C)(C)C` [Cetrimonium Bromide (CTAB)] was tested, and the “miR-132-3p level in NGN2-iNs” value was 0.504. With `CCCc1nc(C(C)(C)O)c(C(=O)OCc2oc(=O)oc2C)n1Cc1ccc(-c2ccccc2-c2nnn[nH]2)cc1` [Olmesartan Medoxomil] the “miR-132-3p level in NGN2-iNs” value was -0.38. For `Nc1nccs1` [Aminothiazole], the “miR-132-3p level in NGN2-iNs” value was -0.426. `NC(=O)c1cccnc1` [Nicotinamide (Vitamin B3)] was tested, and the “miR-132-3p level in NGN2-iNs” value was 0.413. For `CC(C)(Oc1ccc(C2CC2(Cl)Cl)cc1)C(=O)O` (centres undefined) [Ciprofibrate], the “miR-132-3p level in NGN2-iNs” value was -0.412. For `Nc1nc(Nc2ccc(S(N)(=O)=O)cc2)nn1C(=O)c1c(F)cccc1F`, the “miR-132-3p level in NGN2-iNs” value was 0.197. `CC(C)c1onc(-c2c(Cl)cccc2Cl)c1COc1ccc(/C=C/c2cccc(C(=O)O)c2)c(Cl)c1` was tested, and the “miR-132-3p level in NGN2-iNs” value was -0.257. `C=CCN1CCCC1CNC(=O)c1cc2nn[nH]c2cc1OC` (centres undefined) [Alizapride HCl] was tested, and the “miR-132-3p level in NGN2-iNs” value was 0.0651. In the case of `NC(=O)[C@@H](CCC(F)(F)F)N(Cc1ccc(-c2ncon2)cc1F)S(=O)(=O)c1ccc(Cl)cc1`, the “miR-132-3p level in NGN2-iNs” value is reported as 0.138. With `N#CC(=C(/N)Sc1ccccc1N)/C(C#N)=C(\N)Sc1ccccc1N` the “miR-132-3p level in NGN2-iNs” value was -0.0428. In the case of `CCCNS(=O)(=O)Nc1ncnc(OCCOc2ncc(Br)cn2)c1-c1ccc(Br)cc1` [Macitentan], the “miR-132-3p level in NGN2-iNs” value is reported as -0.481. In the case of `Nc1ccc(S(N)(=O)=O)cc1` [Sulfanilamide], the “miR-132-3p level in NGN2-iNs” value is reported as 0.988. In the case of `CCN1CCC[C@H]1CNC(=O)c1cc(S(N)(=O)=O)ccc1OC` [Levosulpiride], the “miR-132-3p level in NGN2-iNs” value is reported as -0.869. With `COc1ccc(-c2cc3c(C)nc(N)nc3n([C@H]3CC[C@H](OCCO)CC3)c2=O)cn1` the “miR-132-3p level in NGN2-iNs” value was 1.68. For `Cn1c(=O)c(F)c(Nc2ccc(I)cc2F)c2c(=O)n(C[C@@H](O)CO)cnc21`, the “miR-132-3p level in NGN2-iNs” value was -0.596. For `CC1=NN(c2ccc(C(=O)O)cc2)C(=O)C1=Cc1ccc(-c2cc(C)c(C)cc2[N+](=O)[O-])o1`, the “miR-132-3p level in NGN2-iNs” value was -0.0431. `CCOC(=O)c1ccc(C#Cc2ccc3c(c2)C(C)(C)CCS3)nc1` [Tazarotene] was tested, and the “miR-132-3p level in NGN2-iNs” value was -1.75. With `CNC(=O)CN1CCC(Oc2cc3c(Nc4cccc(Cl)c4F)ncnc3cc2OC)CC1` [Sapitinib (AZD8931)] the “miR-132-3p level in NGN2-iNs” value was -1.17. With `Nc1nc(N)nc(-c2cc(Cl)ccc2Cl)n1` [Irsogladine] the “miR-132-3p level in NGN2-iNs” value was -0.2. For `CCc1c(C(=O)NCCc2ccc(N3CCCCC3)cc2)[nH]c2ccc(Cl)cc12`, the “miR-132-3p level in NGN2-iNs” value was 0.258. `COc1ccccc1OCCNCC(O)COc1cccc2[nH]c3ccccc3c12` (centres undefined) [Carvedilol] was tested, and the “miR-132-3p level in NGN2-iNs” value was -1.75. With `CC(C)c1nc(CN(C)C(=O)N[C@H](C(=O)N[C@@H](Cc2ccccc2)C[C@H](O)[C@H](Cc2ccccc2)NC(=O)OCc2cncs2)C(C)C)cs1` [Ritonavir] the “miR-132-3p level in NGN2-iNs” value was -2.85.
